doi:10.1101/2025.02.10.637372
No constants are given. Whether binding was seen depends on the method and setting. In cells and extracts the contact can be indirect. Some binding calls cover weakened binding; strength is not graded here.

By UniProt entry, the sequences of proteins in these tests, tags left out.
UniProt Q99549: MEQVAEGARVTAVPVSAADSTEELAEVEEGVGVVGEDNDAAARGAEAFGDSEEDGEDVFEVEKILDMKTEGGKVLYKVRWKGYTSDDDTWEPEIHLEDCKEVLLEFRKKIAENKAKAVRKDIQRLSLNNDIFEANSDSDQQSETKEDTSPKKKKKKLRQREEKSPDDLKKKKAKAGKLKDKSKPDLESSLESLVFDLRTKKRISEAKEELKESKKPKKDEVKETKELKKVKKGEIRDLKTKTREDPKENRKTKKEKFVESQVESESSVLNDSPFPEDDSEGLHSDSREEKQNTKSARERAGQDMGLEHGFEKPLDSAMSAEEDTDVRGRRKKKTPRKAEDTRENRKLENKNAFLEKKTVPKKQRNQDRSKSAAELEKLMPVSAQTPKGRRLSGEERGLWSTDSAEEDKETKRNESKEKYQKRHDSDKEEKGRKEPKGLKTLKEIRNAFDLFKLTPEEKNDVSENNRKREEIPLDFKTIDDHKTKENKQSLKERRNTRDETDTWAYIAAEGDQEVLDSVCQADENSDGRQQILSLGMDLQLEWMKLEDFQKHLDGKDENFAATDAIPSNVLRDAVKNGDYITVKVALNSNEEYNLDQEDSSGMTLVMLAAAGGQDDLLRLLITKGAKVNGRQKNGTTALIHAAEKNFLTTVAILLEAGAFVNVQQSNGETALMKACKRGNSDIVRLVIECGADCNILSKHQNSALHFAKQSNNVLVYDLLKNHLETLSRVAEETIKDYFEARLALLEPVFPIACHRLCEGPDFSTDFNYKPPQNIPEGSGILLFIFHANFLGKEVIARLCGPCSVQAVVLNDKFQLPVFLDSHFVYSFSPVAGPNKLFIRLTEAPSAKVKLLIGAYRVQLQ
UniProt Q9UK61: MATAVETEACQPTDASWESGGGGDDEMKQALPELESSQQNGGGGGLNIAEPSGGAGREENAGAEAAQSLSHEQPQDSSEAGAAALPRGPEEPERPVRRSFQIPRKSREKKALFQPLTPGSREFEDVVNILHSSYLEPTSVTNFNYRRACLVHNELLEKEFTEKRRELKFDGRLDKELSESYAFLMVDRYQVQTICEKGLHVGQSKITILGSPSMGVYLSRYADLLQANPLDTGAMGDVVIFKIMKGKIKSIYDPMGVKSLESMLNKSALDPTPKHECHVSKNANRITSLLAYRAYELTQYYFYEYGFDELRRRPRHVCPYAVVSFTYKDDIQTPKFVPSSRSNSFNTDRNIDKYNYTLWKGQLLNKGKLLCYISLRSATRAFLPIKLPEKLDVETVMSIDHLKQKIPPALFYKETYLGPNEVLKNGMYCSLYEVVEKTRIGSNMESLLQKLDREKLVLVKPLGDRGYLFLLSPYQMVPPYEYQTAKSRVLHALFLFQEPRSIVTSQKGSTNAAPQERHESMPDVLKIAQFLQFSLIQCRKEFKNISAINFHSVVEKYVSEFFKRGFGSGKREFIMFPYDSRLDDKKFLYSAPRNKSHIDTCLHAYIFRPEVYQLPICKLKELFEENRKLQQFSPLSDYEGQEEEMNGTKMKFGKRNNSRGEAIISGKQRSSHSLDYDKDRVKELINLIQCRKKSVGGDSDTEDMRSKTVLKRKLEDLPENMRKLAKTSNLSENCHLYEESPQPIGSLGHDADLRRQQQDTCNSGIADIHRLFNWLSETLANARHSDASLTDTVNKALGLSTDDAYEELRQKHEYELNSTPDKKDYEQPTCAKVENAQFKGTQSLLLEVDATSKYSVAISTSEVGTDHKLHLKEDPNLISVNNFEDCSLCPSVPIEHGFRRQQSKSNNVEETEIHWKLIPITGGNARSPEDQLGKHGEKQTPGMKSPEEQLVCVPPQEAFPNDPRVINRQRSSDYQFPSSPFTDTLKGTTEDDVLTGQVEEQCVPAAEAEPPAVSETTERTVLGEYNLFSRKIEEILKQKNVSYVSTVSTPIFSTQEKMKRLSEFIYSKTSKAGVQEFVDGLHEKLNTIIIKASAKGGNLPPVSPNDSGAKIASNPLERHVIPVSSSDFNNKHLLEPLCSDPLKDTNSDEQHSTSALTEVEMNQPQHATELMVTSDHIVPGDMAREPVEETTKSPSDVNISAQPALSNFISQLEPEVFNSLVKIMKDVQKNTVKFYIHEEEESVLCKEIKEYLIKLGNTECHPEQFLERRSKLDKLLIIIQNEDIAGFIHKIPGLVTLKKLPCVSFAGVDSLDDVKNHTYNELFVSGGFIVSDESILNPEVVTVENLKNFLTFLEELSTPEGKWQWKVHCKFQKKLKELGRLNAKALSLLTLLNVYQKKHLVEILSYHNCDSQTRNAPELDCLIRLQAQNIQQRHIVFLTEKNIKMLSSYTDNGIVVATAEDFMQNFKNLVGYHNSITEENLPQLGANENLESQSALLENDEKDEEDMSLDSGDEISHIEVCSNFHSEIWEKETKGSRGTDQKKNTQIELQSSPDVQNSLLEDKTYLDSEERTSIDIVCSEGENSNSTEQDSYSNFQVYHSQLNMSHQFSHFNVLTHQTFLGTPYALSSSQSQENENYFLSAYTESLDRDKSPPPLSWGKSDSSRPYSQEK

Experiments:
[1] = target: M-phase phosphoprotein 8 (MPP8) (human (endogenous in H1299)) (UniProt Q99549); assay: co-IP
[2] = target: transcriptional activation suppressor (TASOR) (human (endogenous in H1299)) (UniProt Q9UK61); assay: co-IP

**Q.** What does the source list for “HAdV early protein E1B-55K (from UniProt P03243 1-496)”?
**A.** binding [1]: binds; binding [2]: binds
